According to US6605603B1, “Uses of 1-amino-3-(N,N-dimethylamino)-propylidene-1,1-bisphosphonic acid” (Gador, S.A., priority 1998, dated 2003):
Some results were stated once for a whole list of compounds, not compound by compound. Some ranges recur; such a range may be that of the whole group of compounds.

System: Osteoblast-like rat osteosarcoma cells (ROS17/2.8)
Test: Intracellular calcium measurements (Fura-2 fluorimetry), with or without VDCC blockers, PLC inhibitors or thapsigargin
Format: cell-based
Conditions: Fura-2 loaded cells; for sustained increase in [Ca^2+]i (duration): biphasic time-course
Method: Osteoblast-like rat osteosarcoma cells (ROS17/2.8) were cultured as monolayers at 37° C. in Dulbecco's modified Eagle's medium (DME) containing 10% fetal bovine serum under humidified air (5.5% CO2). After 48 hours, medium was changed to DME containing 1% fetal bovine serum. Unless otherwise stated, cells were allowed to grow until confluence (4-5 days after plating).
Intracellular Ca^2+ changes were monitored by using the Ca^2+-sensitive fluorescent dye Fura-2 as previously described (Vasquez et al., 1998, J. Biol. Chem. 273, 33954-33960). Cell dye loading was achieved by incubating the cells in buffer A containing (in mM): 138 NaCl, 5 KCl, 1 MgCl2, 5 glucose, 10 HEPES (pH 7.4), 1.5 CaCl2, plus 0.1% bovine serumalbumin (BSA), 2 μM of the pentaacetoxymethylester derivative (membrane permeable) Fura-2/AM and 0.012% pluronic F-127, in the dark during 40 min at room temperature (20-25° C.) in order to minimize dye compartmentalization. Unloaded dye was washed out and cells were stored in buffer B (buffer A without BSA, Fura-2/AM and pluronic F-127) in the dark (room temperature) by at least 30 min prior to use, to allow for complete intracellular dye deesterification. For fluorescence measurements the coverslips containing dye-loaded cells were mounted into quartz cuvettes and introduced into the thermostatized (37° C.) sample compartment of a SLM Aminco 8100 spectrofluorimeter. Fura-2 intracellular fluorescence intensity was monitored at an emission wavelength of 510 nm (8 nm bandpass) by alternating with an electronically controlled chopper (300 Hz) the excitation wavelength between 340 and 390 nm employing a dual excitation monochromator at 4 nm bandpass. […] Calibration of Fura-2 signal to calculate [Ca^2+]i values was performed for each coverslip as follows: maximal (Rmax) and minimal (Rmin) intracellular dye fluorescence signals were determined by adding 5 μM ionomycin plus 3 mM Ca^2+ and 10 mM EGTA (pH 7.0) plus 10 mM Tris-base (pH 9.0), respectively. […]
where R is the ratio of Fura-2 fluorescence at the selected wavelengths, Rmax and Rmin represent ratios from Ca^2+ saturated and Ca^2+ free intracellular dye, respectively, and β is the ratio between the specific fluorescence of the Ca^2+ free and Ca^2+ bound forms of the dye at the longer wavelength (Sf2/Sb2).
Fura-2 loaded osteoblasts were treated with vehicle (buffered saline solution, Basal), OPD (10−8 M) or NH2-OPD (10^−8 M) and intracellular Ca^2+ concentration ([Ca^2+]i) was measured as described. […]
Fura-2 loaded cells were treated with vehicle (buffered saline solution, Basal), OPD (10^−8 M) or NH2-OPD (10^−8 M) and intracellular Ca^2+ concentration ([Ca^2+]i) was measured as described. Unless otherwise indicated, [Ca^2+]i stimulation was evaluated at the plateau phase of the BP-induced response (see FIG. 3). […]

Row | SMILES | rapid increase in [Ca^2+]i (time of onset) [s] | sustained increase in [Ca^2+]i (duration) [min]
1 | NCCC(O)(P(=O)(O)O)P(=O)(O)O [APD, pamidronate] | 30 to 60 | > 5
2 | CC(O)(P(=O)(O)O)P(=O)(O)O [EHDP, etidronate] | 30 to 60 | > 5
